Where “and” joins values, the source holds several entries; their conditions need not be identical. Equal entries are not always repeated. The shares of active, inactive and inconclusive entries below differ from those in the screen. Where the call is inconclusive, the potency comes from a doubtful curve fit. Calls of active or inactive are those of the source. The call rests on the fitted dose curve; in most records, active means well fitted inhibition curve with a large enough effect in the signal ratio in the repeat runs (not every such curve was filed as active); inconclusive means weak or mixed curves, or effect the other way; inactive means no such curve, though single readings can be large or run the other way; the % refers to the signal ratio.
These compounds were tested against Vitamin D3 receptor (Homo sapiens) (UniProt P11473) (assay: qHTS assay to identify small molecule antagonists of the vitamin D receptor (VDR) signaling pathway (AID 743223)). Settings: VDR-UAS-bla HEK293T, beta-lactamase FRET ratio, 16 h; activity change, negative = inhibition: at 61 µM (top of the series) unless noted.
Text: U.S. Tox21 Program National Center for Advancing Translational Sciences [NCATS] NIH Chemical Genomics Center [NCGC] U.S. Environmental Protection Agency [EPA] National Institutes of Environmental Health Sciences [NIEHS] National Toxicology Program [NTP] U.S. Food and Drug Administration [FDA] Tox21 Assay Overview: The vitamin D receptor (VDR), a member of nuclear hormone receptor superfamily, plays a critical role in calcium homeostasis and bone metabolism. It is also involved in cell differentiation and growth, and thrombogenicity.
Tox21 Assay Protocol Summary: VDR-bla cells were dispensed at 2,000 cells/5 uL of assay medium per well into black wall/clear-bottom 1536-well plates using a Multidrop Combi (Thermo Fisher Scientific, Waltham, MA) dispenser. After the assay plates were incubated at a 37C and 5% CO2 for 4 h, 23 nL of compounds dissolved in DMSO, positive controls or DMSO only was transferred to the assay plate by a Pintool station (Kalypsys, San Diego, CA), followed by addition of 1 uL of 1alpha, 25-Dihydroxy Vitamin D3 (3 nM, final concentration in the wells) using a Bioraptr Flying Reagent Dispenser (FRD) workstation (Beckman Coulter, Indianapolis, IN). The plates were incubated at 37C and 5% CO2 for 16 h, and then 1 uL of LiveBLAzerTM B/G FRET substrate was added using a Bioraptr FRD. The plates were incubated at room temperature for 2 h and fluorescence intensity was measured by an Envision plate reader (PerkinElmer, Shelton, CT).
On the % scale 0 is the no-effect control and ±100 the full control effect; potency means the concentration at half of the fitted maximal effect.

Protein sequences, listed by entry. Tags and fused reporters are not part of them. Lines headed by an entry give the natural chain unless they say otherwise; changes in a name come on top.
UniProt P11473: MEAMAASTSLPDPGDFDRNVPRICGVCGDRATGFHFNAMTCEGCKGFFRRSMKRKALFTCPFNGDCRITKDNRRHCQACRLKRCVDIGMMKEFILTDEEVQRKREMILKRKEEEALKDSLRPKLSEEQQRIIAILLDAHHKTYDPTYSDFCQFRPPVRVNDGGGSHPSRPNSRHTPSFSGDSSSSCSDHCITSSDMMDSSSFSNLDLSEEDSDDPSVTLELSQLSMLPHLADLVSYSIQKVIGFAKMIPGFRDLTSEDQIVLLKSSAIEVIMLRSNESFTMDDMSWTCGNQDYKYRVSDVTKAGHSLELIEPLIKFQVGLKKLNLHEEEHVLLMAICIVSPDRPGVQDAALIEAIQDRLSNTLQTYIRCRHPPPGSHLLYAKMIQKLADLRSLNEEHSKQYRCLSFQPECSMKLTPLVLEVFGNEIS

SMILES	Potency	activity change, negative = inhibition
O=C(c1ccc(O)c(O)c1)c1ccc(O)cc1O	inconclusive: 43.6 µM [rising, partial curve]	
CC(C)CCOC(=O)/C=C/c1ccccc1		inconclusive: 4.26% [at 78.8 µM]
O=C(C(=O)c1ccccc1)c1ccccc1	inconclusive: 4.35 µM [activator, full curve, poor fit]	
CC(C)c1ccc(O)c(C(C)C)c1		inconclusive: -30.4%
CCc1c(C(=O)NN2CCCCC2)nn(-c2ccc(Cl)cc2Cl)c1-c1ccc(Br)cc1	inconclusive: 34.7 µM [fluorescent, partial curve]	
CCCOCCC		inconclusive: -6.93%
C[C@@H]1C[C@H]2[C@@H]3CCC4=CC(=O)C=C[C@]4(C)[C@@]3(Cl)[C@@H](O)C[C@]2(C)[C@@]1(OC(=O)c1ccco1)C(=O)CCl		inconclusive: 5.37%
CNCC[C@H](Oc1cccc2ccccc12)c1cccs1	inconclusive: 10.7 µM [rising, single point]	
C=CCOC(=O)/C=C\C(=O)OCC=C		inconclusive: 0.147% [at 78.8 µM]
O=C(O)CCN(C1(C(=O)NO)CCCC1)S(=O)(=O)c1ccc(Oc2ccc(F)cc2)cc1		inconclusive: -48.1%
O=S(=O)(O)c1ccccc1/C=C/c1ccc(-c2ccc(/C=C/c3ccccc3S(=O)(=O)O)cc2)cc1	inconclusive: 39.4 µM [activator]	
O=C1NCCN1CCN1CCC(c2cn(-c3ccc(F)cc3)c3ccc(Cl)cc23)CC1	inconclusive: 21.3 µM	
CCCCCCCCCOC(=O)c1ccccc1C(=O)OCCCCCCCCC		inactive: 3.53%
CC(COc1ccccc1)N(CCCl)Cc1ccccc1 (stereo unspecified)	inactive	
Nc1nc(N)c2nc(CNc3ccc(C(=O)N[C@@H](CCC(=O)O)C(=O)O)cc3)cnc2n1	inconclusive: 51.3 µM [fluorescent, partial curve]	
NC(=O)c1ccncc1		inconclusive: 27.8% [at 78.8 µM]
CCCCC(CC)COCC1CO1 (stereo unspecified)	inconclusive: 54.9 µM [fluorescent, single point]	
Cc1ccc(NC=O)c(C)c1		inactive: -2.68%

SMILES	Potency	activity change, negative = inhibition
c1ccc2[nH]c(-c3cscn3)nc2c1	inactive	
Clc1ccc2c(c1)CCc1cccnc1C2=C1CCNCC1		inconclusive: -35.2% [inhibitor]
C=CC(=C)CCC=C(C)C	inconclusive: 2.19 µM [inhibitor, single point]	
CCc1cc(C(N)=S)ccn1	inactive	
O=c1c(O)c(-c2ccc(O)c(O)c2)oc2cc(O)cc(O)c12		inconclusive: 1.62%
CCCCN	inconclusive: 0.206 µM [activator, full curve, poor fit]	
CCOC(=O)NCCOc1ccc(Oc2ccccc2)cc1		inactive: 20.3%
O=C1OC2(c3ccccc31)c1cc(I)c(O)c(I)c1Oc1c2cc(I)c(O)c1I		inconclusive: -46.5% and inconclusive: -34.4%
Oc1ccccc1O		inconclusive: 10% [at 78.8 µM]
CCCCCC[C@@H](O)C/C=C\CCCCCCCC(=O)OCC(O)CO (stereo partly specified)	inconclusive: 0.123 µM [activator, full curve, poor fit]	
CCCCCCCC/C=C\CCCCCCCC(=O)NCc1ccc(O)c(OC)c1	active: 26.8 µM	
O=C1c2ccccc2C(=O)N1CCl		inconclusive: 0.398%
c1cnc2c(c1)ccc1cccnc12	inconclusive: 4.41 µM [inhibitor] and inconclusive: 3.09 µM [inhibitor, full curve] and active: 3.89 µM	
C=CC(=O)OCCCCCCOC(=O)C=C	inconclusive: 55.6 µM and inconclusive: 54.9 µM [single point]	
Cc1ccc(N)cc1S(=O)(=O)O		inconclusive: 1%
CN(C)c1ccc(N=Nc2ccccc2C(=O)O)cc1		inconclusive: -43.1%
O=C(N/N=C/c1ccc([N+](=O)[O-])o1)c1ccc(O)cc1		inconclusive: 8%
C=CCc1ccc(OC)c(OC)c1	inconclusive: 7.76 µM [fluorescent, full curve, poor fit]	inconclusive: 24.2% [at 78.8 µM]

Among those listed so far, these have fluorine:
SMILES	Potency	activity change, negative = inhibition
O=C(O)CCN(C1(C(=O)NO)CCCC1)S(=O)(=O)c1ccc(Oc2ccc(F)cc2)cc1		inconclusive: -48.1%
O=C1NCCN1CCN1CCC(c2cn(-c3ccc(F)cc3)c3ccc(Cl)cc23)CC1	inconclusive: 21.3 µM	

Same assay, conditions: VDR-UAS-bla HEK293T, beta-lactamase FRET ratio, 16 h; at 61 µM (top of the series)

SMILES	activity change, negative = inhibition
O=c1c(O)c(-c2ccc(O)c(O)c2)oc2cc(O)cc(O)c12	inactive: 1.92% and inactive: -0.0353%
O=C1OC2(c3ccccc31)c1cc(I)c(O)c(I)c1Oc1c2cc(I)c(O)c1I	inactive: -1.65% and inactive: -22%
Oc1ccccc1O	inactive: -15%

Same assay, conditions: VDR-UAS-bla HEK293T, beta-lactamase FRET ratio, 16 h; at 78.8 µM (top of the series)

SMILES	activity change, negative = inhibition
O=c1c(O)c(-c2ccc(O)c(O)c2)oc2cc(O)cc(O)c12	inactive: -7.98%

— PubChem BioAssay (Tox21)
